Test results taken from patent US20220348665A1.
No constants are given. Whether binding was seen depends on the method and setting. Sequences can lack the tags named with a protein.

Biological target: IGFIIR
Test: ELISA on coated protein, 5-fold dilutions from 20 nM, anti-human Fc HRP, Abs. at 450 nm

B1: 1564 minibody (anti-IGF1R scFv of clone 1564 at the C-terminus of Fc) (Fc fusion, not shown: a dimerising Fc or GST)
chain: QSVLTQPPSASGTPGQRVTISCTGSSSNIGSNDVSWYQQLPGTAPKLLIYANSNRPSGVSDRFSGSKSGTSASLAISGLRSEDEADYYCGAWDDSLNGYVFGCGTKLTVLGGGGSGGGGSGGGGSGGGGSEVQLLESGGGLVQPGGSLRLSCAASGFTFSSYDMSWVRQAPGKCLEWVSAISYDNGNTYYADSVKGRFTISRDNSKNTLYLQMNSLRAEDTAVYYCAKGVLTTLMNWFDYWGQGTLVTVSS
  binding: no binding (tested: 20 nM)
